Reference: the supplement of paper PMC8728848
The other results are listed elsewhere or left out.

Experiments:
Assay in all cases: glycan array binding signal (z-score within array); higher = stronger binding
Settings in all cases: glycan notation: IUPAC condensed, linker removed
[1] = target: Gal(b1-2)Gal
Outline: (§1)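 The Consortium for Functional Glycomics database supplied 3228 glycan arrays, of which those lacking an available protein sequence were dropped. The binding signal, a within-array Z-score, was averaged across arrays of the same protein sequence and across linkers. Negative scores can be read as non-binding.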

[2] = target: Gal(b1-3)Gal
Outline: as §1

[3] = target: Gal(b1-3)Gal(b1-4)GlcNAc
Outline: as §1

[4] = target: Gal(b1-3)GalNAc
Outline: as §1

[5] = target: Gal(b1-3)GalNAc(a1-3)[Fuc(a1-2)]Gal(b1-4)Glc
Outline: as §1

[6] = target: Gal(b1-3)GalNAc(a1-3)[Fuc(a1-2)]Gal(b1-4)GlcNAc
Outline: as §1

[7] = target: Gal(b1-3)GalNAc(b1-3)Gal
Outline: as §1

[8] = target: Gal(b1-3)GalNAc(b1-3)Gal(a1-4)Gal(b1-4)Glc
Outline: as §1

[9] = target: Gal(b1-3)GalNAc(b1-4)Gal(b1-4)Glc
Outline: as §1

[10] = target: Gal(b1-3)GalNAc(b1-4)[Neu5Ac(a2-3)]Gal(b1-4)Glc
Outline: as §1

[11] = target: Gal(b1-3)GlcNAc
Outline: as §1

[12] = target: Gal(b1-3)GlcNAc(a1-3)Gal(b1-4)GlcNAc
Outline: as §1

[13] = target: Gal(b1-3)GlcNAc(a1-6)Gal(b1-4)GlcNAc
Outline: as §1

[14] = target: Gal(b1-3)GlcNAc(b1-2)Man
Outline: as §1

[15] = target: Gal(b1-3)GlcNAc(b1-2)Man(a1-3)[Gal(b1-3)GlcNAc(b1-2)Man(a1-6)]Man(b1-4)GlcNAc(b1-4)GlcNAc
Outline: as §1

[16] = target: Gal(b1-3)GlcNAc(b1-2)Man(a1-3)[Gal(b1-3)GlcNAc(b1-2)Man(a1-6)]Man(b1-4)GlcNAc(b1-4)[Fuc(a1-6)]GlcNAc
Outline: as §1

[17] = target: Gal(b1-3)GlcNAc(b1-2)Man(a1-3)[GlcNAc(b1-4)][Gal(b1-3)GlcNAc(b1-2)Man(a1-6)]Man(b1-4)GlcNAc(b1-4)GlcNAc
Outline: as §1

[18] = target: Gal(b1-3)GlcNAc(b1-2)[Gal(b1-3)GlcNAc(b1-6)]Man(a1-6)[Gal(b1-3)GlcNAc(b1-2)Man(a1-3)]Man(b1-4)GlcNAc(b1-4)GlcNAc
Outline: as §1

[19] = target: Gal(b1-3)GlcNAc(b1-3)Gal(b1-3)GlcNAc
Outline: as §1

[20] = target: Gal(b1-3)GlcNAc(b1-3)Gal(b1-4)Glc
Outline: as §1

[21] = target: Gal(b1-3)GlcNAc(b1-3)Gal(b1-4)GlcNAc
Outline: as §1

[22] = target: Gal(b1-3)GlcNAc(b1-3)Gal(b1-4)GlcNAc(b1-2)Man(a1-3)[Gal(b1-3)GlcNAc(b1-3)Gal(b1-4)GlcNAc(b1-2)Man(a1-6)]Man(b1-4)GlcNAc(b1-4)GlcNAc
Outline: as §1

[23] = target: Gal(b1-3)GlcNAc(b1-3)Gal(b1-4)GlcNAc(b1-2)[Gal(b1-3)GlcNAc(b1-3)Gal(b1-4)GlcNAc(b1-6)]Man(a1-6)[Gal(b1-3)GlcNAc(b1-3)Gal(b1-4)GlcNAc(b1-2)Man(a1-3)]Man(b1-4)GlcNAc(b1-4)[Fuc(a1-6)]GlcNAc
Outline: as §1

[24] = target: Gal(b1-3)GlcNAc(b1-3)Gal(b1-4)GlcNAc(b1-3)Gal(b1-4)GlcNAc(b1-2)[Gal(b1-3)GlcNAc(b1-3)Gal(b1-4)GlcNAc(b1-3)Gal(b1-4)GlcNAc(b1-6)]Man(a1-6)[Gal(b1-3)GlcNAc(b1-3)Gal(b1-4)GlcNAc(b1-3)Gal(b1-4)GlcNAc(b1-2)Man(a1-3)]Man(b1-4)GlcNAc(b1-4)[Fuc(a1-6)]GlcNAc
Outline: as §1

[25] = target: Gal(b1-3)GlcNAc(b1-3)Gal(b1-4)GlcNAc(b1-6)[Gal(b1-3)GlcNAc(b1-3)]Gal(b1-4)Glc
Outline: as §1

[26] = target: Gal(b1-3)GlcNAc(b1-3)Gal(b1-4)[Fuc(a1-3)]GlcNAc
Outline: as §1

[27] = target: Gal(b1-3)GlcNAc(b1-3)Gal(b1-4)[Fuc(a1-3)]GlcNAc(b1-6)[Gal(b1-3)GlcNAc(b1-3)]Gal(b1-4)Glc
Outline: as §1

[28] = target: Gal(b1-3)GlcNAc(b1-3)GalNAc
Outline: as §1

[29] = target: Gal(b1-3)GlcNAc(b1-6)Gal(b1-4)GlcNAc
Outline: as §1

[30] = target: Gal(b1-3)GlcNAc(b1-6)GalNAc
Outline: as §1

[31] = target: Gal(b1-3)GlcNAc(b1-6)[Gal(b1-3)]GalNAc
Outline: as §1

[32] = target: Gal(b1-3)GlcNAc6S
Outline: as §1

[33] = target: Gal(b1-3)[Fuc(a1-4)]GlcNAc
Outline: as §1

[34] = target: Gal(b1-3)[Fuc(a1-4)]GlcNAc(b1-2)Man
Outline: as §1

[35] = target: Gal(b1-3)[Fuc(a1-4)]GlcNAc(b1-2)Man(a1-3)[Gal(b1-3)[Fuc(a1-4)]GlcNAc(b1-2)Man(a1-6)]Man(b1-4)GlcNAc(b1-4)[Fuc(a1-6)]GlcNAc
Outline: as §1

[36] = target: Gal(b1-3)[Fuc(a1-4)]GlcNAc(b1-3)Gal(b1-3)[Fuc(a1-4)]GlcNAc
Outline: as §1

[37] = target: Gal(b1-3)[Fuc(a1-4)]GlcNAc(b1-3)Gal(b1-4)[Fuc(a1-3)]GlcNAc
Outline: as §1

[38] = target: Gal(b1-3)[Fuc(a1-4)]GlcNAc(b1-6)GalNAc
Outline: as §1

[39] = target: Gal(b1-3)[GlcNAc(b1-6)]GalNAc
Outline: as §1

[40] = target: Gal(b1-3)[Neu5Ac(a2-6)]GalNAc
Outline: as §1

[41] = target: Gal(b1-3)[Neu5Ac(a2-6)]GlcNAc(b1-4)Gal(b1-4)Glc
Outline: as §1

[42] = target: Gal(b1-3)[Neu5Ac(b2-6)]GalNAc
Outline: as §1

[43] = target: Gal(b1-4)Gal
Outline: as §1

[44] = target: Gal(b1-4)GalNAc(a1-3)[Fuc(a1-2)]Gal(b1-4)GlcNAc
Outline: as §1

[45] = target: Gal(b1-4)GalNAc(b1-3)[Fuc(a1-2)]Gal(b1-4)GlcNAc
Outline: as §1

B1: Aap lectin (Staphylococcus epidermidis) (protein)
chain: VNLNYSSPFMSLLSMPADSSSNNTKNTIDIPPTTVKGRDNYDFYGRVDIESNPTDLNATNLTRYNYGQPPGTTTAGAVQFKNQVSFDKDFDFNIRVANNRQSNTTGADGWGFMFSKKDGDDFLKNGGILREKGTPSAAGFRIDTGYYNNDPLDKIQKQAGQGYRGYGTFVKNDSQGNTSKVGSGTPSTDFLNYADNTTNDLDGKFHGQKLNNVNLKYNASNQTFTATYAGKTWTATLSELGLSPTDSYNFLVTSS
glycan array binding signal (z-score) [1]: -0.782 | glycan array binding signal (z-score) [2]: -0.836 | glycan array binding signal (z-score) [3]: -0.133 | glycan array binding signal (z-score) [4]: -0.294 | glycan array binding signal (z-score) [5]: -0.917 | glycan array binding signal (z-score) [6]: -0.68 | glycan array binding signal (z-score) [7]: 0.027 | glycan array binding signal (z-score) [8]: -0.351 | glycan array binding signal (z-score) [9]: 0.103 | glycan array binding signal (z-score) [10]: -0.798 | glycan array binding signal (z-score) [11]: -0.823 | glycan array binding signal (z-score) [12]: 1.17 | glycan array binding signal (z-score) [13]: 0.14 | glycan array binding signal (z-score) [14]: 3.17 | glycan array binding signal (z-score) [15]: 0.05 | glycan array binding signal (z-score) [16]: 1.5 | glycan array binding signal (z-score) [17]: 0.743 | glycan array binding signal (z-score) [18]: -0.728 | glycan array binding signal (z-score) [19]: -0.888 | glycan array binding signal (z-score) [20]: -0.9 | glycan array binding signal (z-score) [21]: -0.563 | glycan array binding signal (z-score) [22]: -0.429 | glycan array binding signal (z-score) [23]: 0.695 | glycan array binding signal (z-score) [24]: 0.056 | glycan array binding signal (z-score) [25]: -0.349 | glycan array binding signal (z-score) [26]: -0.351 | glycan array binding signal (z-score) [27]: -0.569 | glycan array binding signal (z-score) [28]: 0.183 | glycan array binding signal (z-score) [29]: -0.777 | glycan array binding signal (z-score) [30]: -0.284 | glycan array binding signal (z-score) [31]: 0.191 | glycan array binding signal (z-score) [32]: -0.857 | glycan array binding signal (z-score) [33]: -0.174 | glycan array binding signal (z-score) [34]: 0.572 | glycan array binding signal (z-score) [35]: 1.15 | glycan array binding signal (z-score) [36]: -0.893 | glycan array binding signal (z-score) [37]: -0.909 | glycan array binding signal (z-score) [38]: 1.01 | glycan array binding signal (z-score) [39]: -0.042 | glycan array binding signal (z-score) [40]: -0.302 | glycan array binding signal (z-score) [41]: -0.69 | glycan array binding signal (z-score) [42]: 0.985 | glycan array binding signal (z-score) [43]: 0.559 | glycan array binding signal (z-score) [44]: -0.883 | glycan array binding signal (z-score) [45]: -0.875
